Test results reported in doi:10.1101/2022.02.14.480271.
No constants are given. Whether binding was seen depends on the method and setting. In cells and extracts the contact can be indirect. Some results given as binding are weak or reduced against the parent protein; the word gives no strength.

The chains behind the UniProt entries cited, without tags or fusion partners.
UniProt Q14694: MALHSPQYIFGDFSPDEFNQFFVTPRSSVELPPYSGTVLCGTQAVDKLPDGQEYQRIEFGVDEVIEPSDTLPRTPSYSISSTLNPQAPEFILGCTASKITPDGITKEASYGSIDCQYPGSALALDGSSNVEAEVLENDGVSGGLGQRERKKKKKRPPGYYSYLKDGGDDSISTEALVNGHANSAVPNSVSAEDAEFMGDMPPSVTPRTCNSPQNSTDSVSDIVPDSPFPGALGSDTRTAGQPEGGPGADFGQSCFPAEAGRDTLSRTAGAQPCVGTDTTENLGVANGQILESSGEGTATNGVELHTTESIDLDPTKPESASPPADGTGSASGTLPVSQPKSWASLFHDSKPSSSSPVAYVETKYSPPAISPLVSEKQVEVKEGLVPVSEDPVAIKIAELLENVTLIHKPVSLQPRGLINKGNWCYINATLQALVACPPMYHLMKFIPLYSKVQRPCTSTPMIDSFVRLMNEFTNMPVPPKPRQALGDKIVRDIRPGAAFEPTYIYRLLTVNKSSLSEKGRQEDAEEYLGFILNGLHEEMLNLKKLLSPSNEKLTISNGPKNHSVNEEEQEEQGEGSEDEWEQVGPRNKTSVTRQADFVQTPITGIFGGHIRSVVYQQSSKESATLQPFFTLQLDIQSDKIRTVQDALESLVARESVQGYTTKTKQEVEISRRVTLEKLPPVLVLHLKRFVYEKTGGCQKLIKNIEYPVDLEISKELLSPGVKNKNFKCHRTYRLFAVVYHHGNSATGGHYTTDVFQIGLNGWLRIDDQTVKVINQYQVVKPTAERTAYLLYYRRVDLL
UniProt Q9Y4D1: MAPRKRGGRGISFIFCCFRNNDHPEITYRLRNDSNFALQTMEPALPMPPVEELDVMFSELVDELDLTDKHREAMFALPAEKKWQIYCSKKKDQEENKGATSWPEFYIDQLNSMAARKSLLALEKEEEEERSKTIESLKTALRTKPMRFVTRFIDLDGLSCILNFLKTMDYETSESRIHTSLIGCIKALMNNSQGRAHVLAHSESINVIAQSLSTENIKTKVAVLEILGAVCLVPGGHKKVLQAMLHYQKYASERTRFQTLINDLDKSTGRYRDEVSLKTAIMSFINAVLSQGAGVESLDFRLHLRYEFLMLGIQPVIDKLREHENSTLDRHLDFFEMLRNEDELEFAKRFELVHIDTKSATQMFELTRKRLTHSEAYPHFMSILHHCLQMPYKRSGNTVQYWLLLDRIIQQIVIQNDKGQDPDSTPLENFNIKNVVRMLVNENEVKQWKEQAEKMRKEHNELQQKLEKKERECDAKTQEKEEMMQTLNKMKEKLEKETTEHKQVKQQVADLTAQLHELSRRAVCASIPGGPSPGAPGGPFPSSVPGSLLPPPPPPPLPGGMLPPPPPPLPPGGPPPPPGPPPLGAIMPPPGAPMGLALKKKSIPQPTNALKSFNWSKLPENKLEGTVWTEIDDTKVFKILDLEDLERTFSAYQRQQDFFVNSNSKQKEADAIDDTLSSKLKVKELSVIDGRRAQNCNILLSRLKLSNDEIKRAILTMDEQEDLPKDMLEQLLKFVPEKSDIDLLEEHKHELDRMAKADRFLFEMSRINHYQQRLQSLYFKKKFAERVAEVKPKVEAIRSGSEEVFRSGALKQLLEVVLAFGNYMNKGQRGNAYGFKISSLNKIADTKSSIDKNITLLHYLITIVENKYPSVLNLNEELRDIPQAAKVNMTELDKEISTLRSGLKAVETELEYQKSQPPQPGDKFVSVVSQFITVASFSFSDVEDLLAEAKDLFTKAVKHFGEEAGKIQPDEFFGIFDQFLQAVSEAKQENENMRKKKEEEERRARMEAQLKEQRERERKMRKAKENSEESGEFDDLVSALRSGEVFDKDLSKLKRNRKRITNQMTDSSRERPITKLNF

Target: USP10 (endogenous in human corneal fibroblasts) (human (endogenous in HCFs)) (UniProt Q14694)
Assay: proximity ligation

binding: binds
Substance: Daam1 (endogenous in human corneal fibroblasts) (from UniProt Q9Y4D1 1-1078)
